Data as given in PubChem BioAssay AID602196 (INSERM, 2012).
Purpose: 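Genes whose knock-down alters cisplatin killing of lung cancer cells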. Cell system: human A549 lung cancer cells. Reagent: siRNA pair against human genes. Duration: 48 h transfection before cisplatin; time from cisplatin to read-out not stated. Conditions: cisplatin at a dose killing half of control-siRNA cells; exact dose and duration not given. Read-out: 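Shift in cisplatin death relative to control siRNA, from -50 (all cells die) to +50 (no cells die); siRNAs harmful on their own scored 0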. Reading the numbers: two-siRNA summed score (-2 to +2): higher = both siRNAs protect from cisplatin killing; -2 means both sensitise; mean protection from cisplatin (shift in death) and protection from cisplatin (shift in death), siRNA C and protection from cisplatin (shift in death), siRNA D: higher = protection from cisplatin killing. Call rule: 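siRNAs harmful alone (LDH or WST-1) get 0; others get +1 for less and -1 for more cisplatin killing; genes are active when the two siRNAs give the same sign, summing to ±2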. Calls: active = both siRNAs shift cisplatin killing the same way; inactive = no consistent shift, or siRNA harmful alone.
Here is an unselected part of about 23,000 deposited reagents. 455 of them (2%) count as active. 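Active includes both protection and sensitisation; some change values fall well beyond the stated -50 to +50 range.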 Reagents against one gene are numbered here. Reagent sequences are not shown. Not given: the amount of reagent.

target	reagent no.	two-siRNA summed score (-2 to +2)	mean protection from cisplatin (shift in death) (%)	protection from cisplatin (shift in death), siRNA C (%)	protection from cisplatin (shift in death), siRNA D (%)	activity call
UBR3	1	0	11.1	7.7	14.4	inactive
PCK2	1	1	16.3	7.8	24.9	inactive
NMRAL2P	1	0	6	8.9	3.2	inactive
CEP20	1	0	2	5.2	-1.1	inactive
DPPA4	1	0	4.1	-7.2	15.5	inactive
HOXC11	1	0	0	5.5	-5.4	inactive
FMR1NB	1	0	-2.3	-2.3	-2.3	inactive
A4GALT	1	0	6.3	30.1	-17.5	inactive
WDR19	1	0	3	16	-9.9	inactive
TMEM259	1	0	3.3	-3.2	9.9	inactive
KIAA0513	1	0	9.8	5.6	13.9	inactive
LOC144766	1	0	7.4	7.8	7.1	inactive
RALB	1	0	-3.1	5	-11.2	inactive
STXBP6	1	0	-1.9	4.2	-8	inactive
KRT74	1	0	2.9	9.5	-3.7	inactive
LOC387791 (retired record)	1	1	0.7	12.5	-11.1	inactive
CRIPT	1	1	8.5	19.7	-2.7	inactive
TUBA3C	1	0	2.3	-18	22.6	inactive
LOC133609	1	0	5.9	5.7	6	inactive
IARS2	1	0	-9.4	-17.1	-1.7	inactive
TTLL11	1	0	0.4	3.4	-2.6	inactive
TTLL11	2	0	15.1	8.2	22	inactive
CCL8	1	0	2.4	-0.5	5.2	inactive
KCNA2	1	1	5.9	21.6	-9.7	inactive
KRT32	1	1	10.9	4.6	17.2	inactive
TBC1D9B	1	0	7.2	5.4	9	inactive
SLC27A4	1	1	3.7	17.4	-10	inactive
LRFN3	1	1	16.2	19.3	13.1	inactive
LPCAT2	1	0	4	2	6.1	inactive
LOC440148	1	1	15.3	4.3	26.3	inactive
MTERF2	1	0	3.5	8.5	-1.4	inactive
ZNF711	1	-1	-6.4	-2	-10.8	inactive
LOC285176	1	0	32.2	51.7	12.7	inactive
OSGEPL1	1	0	14.9	18.8	11.1	inactive
LRRC37A11P	1	0	8.8	6.1	11.5	inactive
SFT2D1	1	-1	-8	-4.4	-11.5	inactive
PRPF38A	1	0	2.1	-1.9	6.2	inactive
MPIG6B	1	0	-1.3	-8.2	5.6	inactive
LOC340109	1	1	12.9	18.6	7.1	inactive
LOC343052	1	-1	-3.3	-15	8.4	inactive
MUC20	1	0	-7.4	-7.6	-7.2	inactive
POLD4	1	0	9.1	14.9	3.3	inactive
LOC148198	1	0	15.3	14.9	15.6	inactive
LOC439959	1	1	9.2	2.1	16.4	inactive
PPP6R3	1	-1	-8.9	-2.3	-15.5	inactive
OCRL	1	0	6	7.6	4.4	inactive
CIMAP1A	1	0	-1.2	-8.4	5.9	inactive
H1-3	1	0	-7.1	-12	-2.2	inactive
WDR27	1	0	13.4	8.4	18.4	inactive
PLEKHJ1	1	0	0.8	4.4	-2.8	inactive
ZDHHC18	1	0	0.8	8	-6.4	inactive
MAML3	1	-1	-12.5	-19.2	-5.9	inactive
LOC440968	1	0	18.8	17.8	19.8	inactive
CEP164	1	0	6.5	16.9	-3.8	inactive
LOC440709	1	0	8.6	10.2	7	inactive
ABCA10	1	0	-1.5	-4.4	1.5	inactive
CDK7	1	-1	-4.5	10	-19	inactive
